Measurements reported in PubChem BioAssay AID1224830 (NIAID, 2016)

Test: 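Host factors that control LPS-induced TNF expression in human macrophages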 (primary screen)
Cells: human THP-1 monocytic leukaemia cells, TNF dual-luciferase reporter clone, PMA-differentiated to macrophage-like cells
Reagents: siRNA pool against human genes, 50 nM
Time to read-out: LPS for 4 h, given about 3 days after siRNA transfection
Conditions: bacterial LPS (TLR4 ligand), 10 ng/ml
Read-out: 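TNF firefly reporter luminescence divided by renilla, normalised to the plate median, then turned into a robust z-score for each replicate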
Direction: TNF reporter robust z-score: higher = stronger TNF reporter response to LPS
Rule for the call: 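a well is active when its z-score exceeds 2.8 or falls below -1.5; control wells carry no call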
Shown is an unselected part of about 18,000 deposited reagents. About 2,900 of all reagents (16%) were called active. 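Calls are made per well; low scores hint the gene aids the LPS response, high scores that it dampens it.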 Entries without a mark were called inactive. Repeated entries: four replicate wells of each siRNA pool.

target	TNF reporter robust z-score
RCHY1	-1.1
RCHY1	0.9
RCHY1	0.08
RMC1	-0.28
RMC1	-0.21
RMC1	0.03
RMC1	0.62
TACO1	0.17
TACO1	0.46
TACO1	-0.41
TACO1	-1.03
CADM4	0.18
CADM4	0.47
CADM4	-0.37
CADM4	-1.56 (active)
SENP5	-0.14
SENP5	3.44 (active)
SENP5	1.21
SENP5	-0.68
PSAP	0.14
PSAP	-0.8
PSAP	-0.14
PSAP	-0.37
B4GALT1	-0.83
B4GALT1	1.07
B4GALT1	0.52
B4GALT1	0.86
BEX3	1.02
BEX3	-0.91
BEX3	-0.66
BEX3	-1.62 (active)
MYL6	-0.49
MYL6	-0.03
MYL6	-0.55
MYL6	0.32
PIEZO1	-1.11
PIEZO1	-0.47
PIEZO1	-0.5
PIEZO1	-0.66
S100A3	-1.28
S100A3	-0.63
S100A3	-0.7
S100A3	-0.62
TMEM263	-1.36
TMEM263	-0.61
TMEM263	-0.5
TMEM263	0.22

6 entries from above, sorted by “TNF reporter robust z-score”, low to high.
target	TNF reporter robust z-score
BEX3	-1.62 (active)
BEX3	-0.91
BEX3	-0.66
MYL6	-0.49
MYL6	-0.03
BEX3	1.02
